Measured values taken from the supplement of paper PMC11546906.
Counter-ions that a name gives are not always drawn. The list shows a part of the results. Single values are uncertain here, since repeats match poorly.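 FDA-approved drugs were each paired with colistin at one-eighth its MIC and screened against a multidrug-resistant, mcr-1-positive clinical E. coli isolate, with OD600 read after 24 h. Drug-free bacteria served as growth control, plain broth as blank. Combinations were active if OD600 dropped below 0.2.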

Each compound was assayed on Escherichia coli 42 (mcr-1-positive clinical isolate) (assay: OD600 after 24 h growth with compound plus colistin (absorbance units (OD600)); higher = more bacterial growth (less inhibition)). Conditions: first compound 25 µM; colistin concentration 0.5 ug/mL; incubation time 24 h; 37 °C.

Structure (SMILES)	OD600
Cc1nc(Nc2ncc(C(=O)Nc3c(C)cccc3Cl)s2)cc(N2CCN(CCO)CC2)n1 [Dasatinib] + CCC(C)CCCC(=O)N[C@@H](CCN)C(=O)N[C@H](C(=O)N[C@@H](CCN)C(=O)N[C@H]1CCNC(=O)[C@H]([C@@H](C)O)NC(=O)[C@H](CCN)NC(=O)[C@H](CCN)NC(=O)[C@H](CC(C)C)NC(=O)[C@@H](CC(C)C)NC(=O)[C@H](CCN)NC1=O)[C@@H](C)O [colistin]	inactive: 0.792
CC(C)(Sc1cc(C(C)(C)C)c(O)c(C(C)(C)C)c1)Sc1cc(C(C)(C)C)c(O)c(C(C)(C)C)c1 [Probucol] + CCC(C)CCCC(=O)N[C@@H](CCN)C(=O)N[C@H](C(=O)N[C@@H](CCN)C(=O)N[C@H]1CCNC(=O)[C@H]([C@@H](C)O)NC(=O)[C@H](CCN)NC(=O)[C@H](CCN)NC(=O)[C@H](CC(C)C)NC(=O)[C@@H](CC(C)C)NC(=O)[C@H](CCN)NC1=O)[C@@H](C)O [colistin]	inactive: 1.13
N=C(N)NC(=O)c1nc(Cl)c(N)nc1N [Amiloride hydrochloride dihydrate] + CCC(C)CCCC(=O)N[C@@H](CCN)C(=O)N[C@H](C(=O)N[C@@H](CCN)C(=O)N[C@H]1CCNC(=O)[C@H]([C@@H](C)O)NC(=O)[C@H](CCN)NC(=O)[C@H](CCN)NC(=O)[C@H](CC(C)C)NC(=O)[C@@H](CC(C)C)NC(=O)[C@H](CCN)NC1=O)[C@@H](C)O [colistin]	inactive: 1.04
CC(=O)S[C@@H]1CC2=CC(=O)CC[C@]2(C)[C@H]2CC[C@@]3(C)[C@@H](CC[C@@]34CCC(=O)O4)[C@H]12 [Spironolactone] + CCC(C)CCCC(=O)N[C@@H](CCN)C(=O)N[C@H](C(=O)N[C@@H](CCN)C(=O)N[C@H]1CCNC(=O)[C@H]([C@@H](C)O)NC(=O)[C@H](CCN)NC(=O)[C@H](CCN)NC(=O)[C@H](CC(C)C)NC(=O)[C@@H](CC(C)C)NC(=O)[C@H](CCN)NC1=O)[C@@H](C)O [colistin]	inactive: 0.899
CC(=O)Nc1cccc(-n2c(=O)n(C3CC3)c(=O)c3c(Nc4ccc(I)cc4F)n(C)c(=O)c(C)c32)c1 [Trametinib] + CCC(C)CCCC(=O)N[C@@H](CCN)C(=O)N[C@H](C(=O)N[C@@H](CCN)C(=O)N[C@H]1CCNC(=O)[C@H]([C@@H](C)O)NC(=O)[C@H](CCN)NC(=O)[C@H](CCN)NC(=O)[C@H](CC(C)C)NC(=O)[C@@H](CC(C)C)NC(=O)[C@H](CCN)NC1=O)[C@@H](C)O [colistin]	inactive: 1.01
O=C(O)C(=O)O.[NH-][C@@H]1CCCC[C@H]1[NH-].[Pt+2] [Oxaliplatin] + CCC(C)CCCC(=O)N[C@@H](CCN)C(=O)N[C@H](C(=O)N[C@@H](CCN)C(=O)N[C@H]1CCNC(=O)[C@H]([C@@H](C)O)NC(=O)[C@H](CCN)NC(=O)[C@H](CCN)NC(=O)[C@H](CC(C)C)NC(=O)[C@@H](CC(C)C)NC(=O)[C@H](CCN)NC1=O)[C@@H](C)O [colistin]	inactive: 0.987
CC(C)c1c(C(=O)Nc2ccccc2)c(-c2ccccc2)c(-c2ccc(F)cc2)n1CC[C@@H](O)C[C@@H](O)CC(=O)O [Atorvastatin hemicalcium salt] + CCC(C)CCCC(=O)N[C@@H](CCN)C(=O)N[C@H](C(=O)N[C@@H](CCN)C(=O)N[C@H]1CCNC(=O)[C@H]([C@@H](C)O)NC(=O)[C@H](CCN)NC(=O)[C@H](CCN)NC(=O)[C@H](CC(C)C)NC(=O)[C@@H](CC(C)C)NC(=O)[C@H](CCN)NC1=O)[C@@H](C)O [colistin]	inactive: 0.919
CCCNC(C)C(=O)Nc1c(C)csc1C(=O)OC (centres undefined) [Articaine hydrochloride] + CCC(C)CCCC(=O)N[C@@H](CCN)C(=O)N[C@H](C(=O)N[C@@H](CCN)C(=O)N[C@H]1CCNC(=O)[C@H]([C@@H](C)O)NC(=O)[C@H](CCN)NC(=O)[C@H](CCN)NC(=O)[C@H](CC(C)C)NC(=O)[C@@H](CC(C)C)NC(=O)[C@H](CCN)NC1=O)[C@@H](C)O [colistin]	inactive: 1.08
C[C@H]1O[C@H](O[C@H]2[C@H](O)[C@@H](O)[C@@H](O[C@@H]([C@H](O)[C@@H](O)C=O)[C@H](O)CO)O[C@@H]2CO)[C@H](O)[C@@H](O)[C@@H]1N[C@H]1C=C(CO)[C@@H](O)[C@H](O)[C@H]1O [Acarbose] + CCC(C)CCCC(=O)N[C@@H](CCN)C(=O)N[C@H](C(=O)N[C@@H](CCN)C(=O)N[C@H]1CCNC(=O)[C@H]([C@@H](C)O)NC(=O)[C@H](CCN)NC(=O)[C@H](CCN)NC(=O)[C@H](CC(C)C)NC(=O)[C@@H](CC(C)C)NC(=O)[C@H](CCN)NC1=O)[C@@H](C)O [colistin]	inactive: 1.07
